PubChem BioAssay AID743448 | Peter MacCallum Cancer Centre – 2014
Aim: 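Third-round triage of 106 confirmed candidates in four colon lines under two drugs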 (follow-up of hits). Cell system: four human colon cancer cell lines: HCT116-VR (vorinostat-resistant HCT116 derivative), SW480, SW620 and LIM1215. Reagents: siRNA pool against human genes, 40 nM siRNA pool. Time to read-out: drug added two days after transfection, read one day later. Treatment: vorinostat 2.5 µM on one half of each plate, etoposide 5 µM on the other half. Cell line and drug panel: LIM1215 cells with etoposide. Measured: 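Caspase 3/7 activity by luminescence and live-cell viability by fluorescence, each given as a ratio to mock-transfected wells and as a robust z-score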. Reading the numbers: caspase ratio to mock: higher = more caspase activity than mock; viability ratio to mock: higher = more live cells than mock; caspase robust z-score: higher = more caspase activity, more apoptosis; viability robust z-score: higher = more live cells. Call rule: 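Hit means caspase ratio to mock at least 1.6, or viability ratio to mock at most 0.75; wells with strong death in the absence of drug get no call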. Meaning of the calls: active = caspase or viability hit in this panel; inactive = no change, or unhealthy well.
Shown is a random part of the 106 reagents, in one setting of the screen. 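Calls are per line and drug panel including etoposide, not vorinostat-specific; gene picks needed hits in two or more extra lines with vorinostat versus etoposide.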 A number with no mark means an inactive call.

gene symbol	caspase ratio to mock	viability ratio to mock	caspase robust z-score	viability robust z-score
SH3GLB2	1.45	0.99	-0.65	0.4
NPC1L1	1.84	0.94	-0.3	0.15
RWDD2A	1.5	1.05	-0.62	0.86
POLR2K	1.49	0.97	-0.66	0.3
DNTTIP2	0.98	0.84	-1.18	-0.6
DDX18	1.42	1.01	-0.69	0.56
PCP4	3.38 (active)	1.12	1.17	1.36
NPEPPS	1.77 (active)	0.62	-0.41	-2
TDP2	3.04 (active)	0.92	0.99	-0.05
CBX7	2.62 (active)	0.78	0.43	-1.03
CNOT3	2.68 (active)	0.9	0.48	-0.17
BDP1	1.36	0.79	-0.74	-0.91
BEGAIN	1.43	0.97	-0.72	0.31
RLN3	1.81 (active)	1.03	-0.3	0.72
AQR	11.7	0.56	10.4	-2.46
LRP3	1.65 (active)	0.7	-0.55	-1.48
LBHD1	3.23 (active)	0.92	1.28	-0.04
MTF2	2.5 (active)	0.96	0.32	0.24

Entries listed so far whose target name starts with B or b (2):
gene symbol	caspase ratio to mock	viability ratio to mock	caspase robust z-score	viability robust z-score
BDP1	1.36	0.79	-0.74	-0.91
BEGAIN	1.43	0.97	-0.72	0.31

The listing continues:
gene symbol	caspase ratio to mock	viability ratio to mock	caspase robust z-score	viability robust z-score
PUF60	3.27 (active)	1	1.24	0.52
GATA1	2.4 (active)	0.97	0.36	0.28
NUP93	3.82	0.66	2.01	-1.73
OR2W5	1.54	1	-0.57	0.55
EIF2B5	1.96 (active)	0.74	-0.23	-1.29
H1-5	2.77 (active)	0.84	0.64	-0.57
EIF3I	1.85 (active)	0.65	-0.31	-1.85
CDK10	4 (active)	0.93	2	0.05
RGS18	2.36 (active)	1.21	0.18	1.9
EIF1AX	1.79 (active)	0.76	-0.4	-1.1
SCRT2	2.69	0.82	0.46	-0.66
MICALL2	3.46 (active)	1.15	1.4	1.5
NUP133	1.72 (active)	0.86	-0.36	-0.44
HPCAL1	3.07 (active)	0.9	1.07	-0.12
MED28	1.71 (active)	1	-0.38	0.5
SERTAD1	1.69 (active)	0.92	-0.4	-0.04
